From PubChem BioAssay AID248 (DTP/NCI, 2004)
The list does not hold the whole screen: its compounds were picked by chemical class. Not every dose and run of a compound is shown. T/C gives the treated animals as a percentage of the vehicle group. For survival time, this PubChem deposit counts one and a half times the control or more as active, and values a quarter to a half above the control carry no call in these data; other NCI protocols may use other cut-offs. Some T/C values are marked as having no survivor count here; that says nothing about deaths at the dose. Schedule codes are those of the source, read here as Q, the interval in days (D) or hours (H), X, the number of doses. Some entries were tested several times; their values stand side by side, smallest first. Marks such as (2×) stand for listed records that agree. Some schedules carry Z or #; the key to these is not given.

Test system: L1210 leukemia ip in BDF1 mice, survival T/C
Assay: NCI In Vivo Anticancer Drug Screen. Data for tumor model L1210 Leukemia (intraperitoneal) in B6D2F1 (BDF1) mice
Settings: T/C endpoint: mean survival time, higher T/C = longer survival

## OC1OC(CN(CCCl)CCCl)C(O)C1O (stereo not given)
dose: 0.28 mg/kg/injection, schedule: Q01DX009 (ip), vehicle: saline
  T/C: 107 % of control [survivor count not shown]
dose: 0.34 mg/kg/injection, schedule: Q04DX003 (ip), vehicle: saline
  T/C: 108 % of control [survivor count not shown]
dose: 0.44 mg/kg/injection, schedule: Q04DX003 (ip), vehicle: acetone
  T/C: 120 % of control [survivor count not shown]
dose: 0.52 mg/kg/injection, schedule: Q04DX003 (ip), vehicle: saline
  T/C: 116 % of control [survivor count not shown]
dose: 0.57 mg/kg/injection, schedule: Q01DX009 (ip), vehicle: saline
  T/C: 117 % of control [survivor count not shown]
dose: 0.67 mg/kg/injection, schedule: Q04DX003 (ip), vehicle: acetone
  T/C: 120 % of control [survivor count not shown]
dose: 0.75 mg/kg/injection, schedule: Q04DX003 (ip), vehicle: saline
  T/C: 104 % of control [survivor count not shown]
dose: 0.78 mg/kg/injection, schedule: Q04DX003 (ip), vehicle: saline
  T/C: 113 % of control [survivor count not shown]
dose: 1.02 mg/kg/injection, schedule: Q04DX003 (ip), vehicle: saline
  T/C: 131 [survivor count not shown], 142 [survivor count not shown], 150 % of control [survivor count not shown]
dose: 1.15 mg/kg/injection, schedule: Q01DX009 (ip), vehicle: saline
  T/C: 126 % of control [survivor count not shown]
dose: 1.5 mg/kg/injection, schedule: Q04DX003 (ip), vehicle: saline
  T/C: 91 % of control [survivor count not shown]
dose: 1.56 mg/kg/injection, schedule: Q04DX003 (ip), vehicle: saline
  T/C: 104 [survivor count not shown], 126 [survivor count not shown], 138 [survivor count not shown], 140 % of control [survivor count not shown]
dose: 2.05 mg/kg/injection, schedule: Q01DX001 (ip), vehicle: saline
  T/C: 139 % of control [survivor count not shown]
dose: 2.3 mg/kg/injection, schedule: Q01DX Z (ip), vehicle: methylcellulose (MC)
  T/C: 119 % of control [survivor count not shown]
dose: 2.34 mg/kg/injection, schedule: Q04DX003 (ip), vehicle: saline
  T/C: 127 [survivor count not shown] (2×) and 131 % of control [survivor count not shown]
dose: 3.0 mg/kg/injection, schedule: Q04DX003 (ip), vehicle: saline
  T/C: 112 % of control [survivor count not shown]
dose: 3.12 mg/kg/injection, schedule: Q01DX001 (ip), vehicle: saline
  T/C: 123 [survivor count not shown] and 134 % of control [survivor count not shown]
dose: 3.12 mg/kg/injection, schedule: Q04DX003 (ip), vehicle: saline
  T/C: 138 % of control [survivor count not shown]
dose: 3.5 mg/kg/injection, schedule: Q01DX Z (ip), vehicle: carboxymethylcellulose (CMC)
  T/C: 110 % of control [survivor count not shown]
dose: 3.5 mg/kg/injection, schedule: Q01DX Z (ip), vehicle: methylcellulose (MC)
  T/C: 117 % of control [survivor count not shown]
dose: 4.68 mg/kg/injection, schedule: Q01DX001 (ip), vehicle: saline
  T/C: 121 % of control [survivor count not shown]
dose: 5.3 mg/kg/injection, schedule: Q01DX Z (ip), vehicle: carboxymethylcellulose (CMC)
  T/C: 128 % of control [survivor count not shown]
dose: 5.3 mg/kg/injection, schedule: Q01DX Z (ip), vehicle: methylcellulose (MC)
  T/C: 126 [survivor count not shown] and 127 % of control [survivor count not shown]
dose: 6.0 mg/kg/injection, schedule: Q04DX003 (ip), vehicle: saline
  T/C: 134 % of control [survivor count not shown]
dose: 6.25 mg/kg/injection, schedule: Q01DX001 (ip), vehicle: saline
  T/C: 123 % of control [survivor count not shown]
dose: 6.25 mg/kg/injection, schedule: Q04DX003 (ip), vehicle: saline
  T/C: 129 % of control [survivor count not shown]
dose: 8.0 mg/kg/injection, schedule: Q01DX Z (ip), vehicle: carboxymethylcellulose (CMC)
  T/C: 112 % of control [survivor count not shown]
dose: 8.0 mg/kg/injection, schedule: Q01DX Z (ip), vehicle: methylcellulose (MC)
  T/C: 121 [survivor count not shown], 122 [survivor count not shown], 131 % of control [survivor count not shown]
dose: 9.2 mg/kg/injection, schedule: Q04DX003 (ip), vehicle: acetone
  T/C: 91 % of control [survivor count not shown]
dose: 12.0 mg/kg/injection, schedule: Q01DX Z (ip), vehicle: methylcellulose (MC)
  T/C: 106 [survivor count not shown] and 117 % of control [survivor count not shown]
dose: 12.0 mg/kg/injection, schedule: Q04DX003 (ip), vehicle: saline
  T/C: 96 % of control [survivor count not shown]
dose: 12.5 mg/kg/injection, schedule: Q01DX001 (ip), vehicle: saline
  T/C: 126 % of control [survivor count not shown]
dose: 24.0 mg/kg/injection, schedule: Q04DX003 (ip), vehicle: saline
  T/C: 100 % of control [survivor count not shown]

## NS(=O)(=O)c1ccc(N(CCBr)CCBr)cc1
dose: 101.5 mg/kg/injection, schedule: Q01DX005 (ip), vehicle: carboxymethylcellulose (CMC)
  T/C: 121 % of control [survivor count not shown]
dose: 203.0 mg/kg/injection, schedule: Q01DX005 (ip), vehicle: carboxymethylcellulose (CMC)
  T/C: 129 % of control [survivor count not shown]

## O=C(O)c1ccc(CN(CCCl)CCCl)cc1
dose: 0.76 mg/kg/injection, schedule: Q04DX003 (ip), vehicle: water
  T/C: 115 % of control [survivor count not shown]
dose: 0.78 mg/kg/injection, schedule: Q04DX003 (ip), vehicle: water
  T/C: 118 % of control [survivor count not shown]
dose: 1.56 mg/kg/injection, schedule: Q04DX003 (ip), vehicle: water
  T/C: 113 [survivor count not shown] and 126 % of control [survivor count not shown]
dose: 3.12 mg/kg/injection, schedule: Q04DX003 (ip), vehicle: water
  T/C: 121 [survivor count not shown] and 134 % of control [survivor count not shown]
dose: 6.25 mg/kg/injection, schedule: Q04DX003 (ip), vehicle: water
  T/C: 134 % of control [survivor count not shown]
